Measured data: PubChem BioAssay AID1224830 (NIAID, 2016)
The deposit covers about 18,000 reagents; this is a random part of them. Over the whole deposit, about 2,900 (16%) are marked active. 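Calls are made per well; low scores hint the gene aids the LPS response, high scores that it dampens it.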 Repeated entries: four replicate wells of each siRNA pool. Reagent sequences are not shown.

- Assay: 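Genes whose knock-down alters the TNF-alpha reporter response to LPS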 (primary screen)
- System: human THP-1 monocytic leukaemia cells, TNF dual-luciferase reporter clone, PMA-differentiated to macrophage-like cells
- Reagents: siRNA pool against human genes, 50 nM
- Duration: LPS for 4 h, given about 3 days after siRNA transfection
- Challenge: bacterial LPS (TLR4 ligand), 10 ng/ml
- Read-out: 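Ratio of firefly to renilla light, scaled to the plate median and expressed as a robust z-score per replicate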
- Reading the numbers: TNF reporter robust z-score: higher = stronger TNF reporter response to LPS
- Hit rule: 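a well is active when its z-score exceeds 2.8 or falls below -1.5; control wells carry no call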

With knock-down of ADIPOQ, the screen gave TNF reporter robust z-score 2.31; inactive.
Silencing of ADIPOQ came out at: TNF reporter robust z-score 1.9; inactive.
ADIPOQ showed TNF reporter robust z-score 1.53; inactive.
Knock-down of TPH2 came out at: TNF reporter robust z-score -0.51; inactive.
For TPH2 the deposit lists TNF reporter robust z-score -0.62; inactive.
Depletion of TPH2 resulted in: TNF reporter robust z-score -0.23; inactive.
For TPH2, the entry reads TNF reporter robust z-score 0.24; inactive.
Against PANX2, the entry reads inactive.
Against PANX2 the deposit lists TNF reporter robust z-score -0.01; inactive.
PANX2 showed TNF reporter robust z-score 0.48; inactive.
After knock-down of PANX2, the record shows TNF reporter robust z-score -0.37; inactive.
Against USP48 the deposit lists TNF reporter robust z-score 0.34; inactive.
With knock-down of USP48 the results were TNF reporter robust z-score 0.62; inactive.
For USP48, the entry reads TNF reporter robust z-score -0.48; inactive.
USP48 scored TNF reporter robust z-score 0.3; inactive.
After knock-down of TP53I3 the results were TNF reporter robust z-score 0.07; inactive.
TP53I3 gave TNF reporter robust z-score -1.08; inactive.
After knock-down of TP53I3, the screen gave TNF reporter robust z-score 0.25; inactive.
With knock-down of TP53I3, the screen gave TNF reporter robust z-score 0.06; inactive.
With knock-down of UBP1, the record shows TNF reporter robust z-score -0.36; inactive.
With knock-down of UBP1, the record shows TNF reporter robust z-score 0.03; inactive.
For UBP1, the values are TNF reporter robust z-score -0.48; inactive.
Knock-down of UBP1 gave: TNF reporter robust z-score 0.41; inactive.
With knock-down of CASTOR3P, the record shows TNF reporter robust z-score -0.82; inactive.
Silencing of CASTOR3P gave: TNF reporter robust z-score -1.01; inactive.
For CASTOR3P, the entry reads TNF reporter robust z-score -0.09; inactive.
After knock-down of CASTOR3P, the record shows TNF reporter robust z-score 0.12; inactive.
Knock-down of TEX13A resulted in: TNF reporter robust z-score -1.61; active.
TEX13A scored TNF reporter robust z-score -1.19; inactive.
With knock-down of TEX13A, the record shows TNF reporter robust z-score -1.04; inactive.
Silencing of TEX13A gave: TNF reporter robust z-score -1.42; inactive.
With knock-down of MPPED1, the screen gave TNF reporter robust z-score 0.27; inactive.
Against MPPED1, the entry reads TNF reporter robust z-score 0.39; inactive.
For MPPED1, the values are TNF reporter robust z-score -0.92; inactive.
For MPPED1 the deposit lists TNF reporter robust z-score -0.4; inactive.
ADPGK showed TNF reporter robust z-score 0.86; inactive.
ADPGK gave TNF reporter robust z-score 2.68; inactive.
Silencing of ADPGK came out at: TNF reporter robust z-score 2.34; inactive.
ADPGK scored TNF reporter robust z-score 1.42; inactive.
Knock-down of PKHD1 resulted in: TNF reporter robust z-score 0.4; inactive.
Knock-down of PKHD1 gave: TNF reporter robust z-score -0.12; inactive.
Silencing of PKHD1 gave: TNF reporter robust z-score -0.51; inactive.
With knock-down of PKHD1 the results were TNF reporter robust z-score 0.15; inactive.
After knock-down of OR52W1 the results were TNF reporter robust z-score 0.43; inactive.
Depletion of OR52W1 came out at: TNF reporter robust z-score 0.65; inactive.
Against OR52W1, the values are TNF reporter robust z-score 0.63; inactive.
OR52W1 scored TNF reporter robust z-score -0.33; inactive.

Already shown: entries from further up.
UBP1: TNF reporter robust z-score = -0.36; call = inactive
UBP1: TNF reporter robust z-score = 0.03; call = inactive
UBP1: TNF reporter robust z-score = -0.48; call = inactive
UBP1: TNF reporter robust z-score = 0.41; call = inactive
CASTOR3P: TNF reporter robust z-score = -0.82; call = inactive
